Data published in publication PMC7862700.
Only a part is listed here, and it is no random draw. At the low end of the ranking, values are background and their order means little.

Target: T1, ELF5 (UniProt Q9UKW6-2)
T1 sequence: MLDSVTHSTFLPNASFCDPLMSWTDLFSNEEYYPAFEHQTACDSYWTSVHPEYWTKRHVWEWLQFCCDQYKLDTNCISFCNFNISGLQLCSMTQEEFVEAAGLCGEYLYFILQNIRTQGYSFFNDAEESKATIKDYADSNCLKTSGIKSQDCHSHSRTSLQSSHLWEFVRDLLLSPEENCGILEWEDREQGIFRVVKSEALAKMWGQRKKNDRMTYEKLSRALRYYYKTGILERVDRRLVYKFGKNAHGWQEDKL
Test: DAPPL (digital affinity profiling via proximity ligation, sequencing)
Conditions: 10 mM Tris-HCl pH 7.5, 50 mM NaCl, 1 mM DTT, 4% glycerol, room temperature, 30 min; GST-TFs on glutathione beads, 16-mer random dsDNA library, 0.1% …; high values mean tight binding; double strand, one strand shown; scale: fold enrichment (6-mer frequency, TF over GST control)

Row | Sequence | binding signal
1 | CCCCGC | 1.07
2 | GCTGCT | 1.23
3 | TTGGGG | 1.14
4 | TAGCCT | 1.17
5 | CCATTA | 1.08
6 | CCCGCT | 1.39
7 | TCTGGA | 0.994
8 | AGCCCA | 0.9
9 | ACCGCT | 1.05
10 | CCTCGG | 1.2
11 | AATGTA | 1.21
12 | TCATAT | 1.19
13 | GGTAAT | 1.16
14 | GAAAAT | 1.17
15 | TTACGC | 0.96
16 | TTGGGC | 0.973
17 | TTCGAC | 1.36
18 | TTTCAA | 1.26
19 | CAACTA | 1.26
20 | AAATGC | 1.33

Row | Sequence | binding signal
21 | AAAGCC | 0.992
22 | TTTGTG | 1.18
23 | ATTAAG | 1.02
24 | GCCTAC | 1.17
25 | CCTATA | 1.39
26 | CAGATT | 0.879
27 | ATAATC | 1.13
28 | TAGTGC | 0.956
29 | CAGCTA | 0.953
30 | TAATAT | 1.22
31 | GATGTA | 1.38
32 | CAATTT | 1.29
33 | CTTAAT | 1.25
34 | TTTCTA | 1.31
35 | TATATC | 1.66
36 | CCTCAA | 1.52
37 | ACTATG | 1.16
38 | AATATC | 1.82
39 | TCACCT | 1.21

A different layout for part of the listing above:
Row	Sequence	binding signal
3	TTGGGG	1.14
4	TAGCCT	1.17
